Assay results as given in the supplement of paper PMC12823440, “Inhibitors supercharge kinase turnover through native proteolytic circuits” (Nature, 2025).
Where a name gives a salt, the structure may show the parent alone. Some of the results follow. Hit calls seldom repeat between salt and free forms of one compound.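 Kinases, fused to nanoluciferase, were expressed in K562 cells; luminescence was measured every 4 h from 2 to 18 h as percent of control (DMSO = 100%, positive control = 0%). A time point is decreased if signal falls significantly (2 sigma). Hits were called by the authors by a rule that is not shown; the count of time points alone does not decide it.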

Amino acid sequences for entries named in this document (tags omitted). A change or cut given only in a name is not applied to a line headed by its entry.
UniProt O75460: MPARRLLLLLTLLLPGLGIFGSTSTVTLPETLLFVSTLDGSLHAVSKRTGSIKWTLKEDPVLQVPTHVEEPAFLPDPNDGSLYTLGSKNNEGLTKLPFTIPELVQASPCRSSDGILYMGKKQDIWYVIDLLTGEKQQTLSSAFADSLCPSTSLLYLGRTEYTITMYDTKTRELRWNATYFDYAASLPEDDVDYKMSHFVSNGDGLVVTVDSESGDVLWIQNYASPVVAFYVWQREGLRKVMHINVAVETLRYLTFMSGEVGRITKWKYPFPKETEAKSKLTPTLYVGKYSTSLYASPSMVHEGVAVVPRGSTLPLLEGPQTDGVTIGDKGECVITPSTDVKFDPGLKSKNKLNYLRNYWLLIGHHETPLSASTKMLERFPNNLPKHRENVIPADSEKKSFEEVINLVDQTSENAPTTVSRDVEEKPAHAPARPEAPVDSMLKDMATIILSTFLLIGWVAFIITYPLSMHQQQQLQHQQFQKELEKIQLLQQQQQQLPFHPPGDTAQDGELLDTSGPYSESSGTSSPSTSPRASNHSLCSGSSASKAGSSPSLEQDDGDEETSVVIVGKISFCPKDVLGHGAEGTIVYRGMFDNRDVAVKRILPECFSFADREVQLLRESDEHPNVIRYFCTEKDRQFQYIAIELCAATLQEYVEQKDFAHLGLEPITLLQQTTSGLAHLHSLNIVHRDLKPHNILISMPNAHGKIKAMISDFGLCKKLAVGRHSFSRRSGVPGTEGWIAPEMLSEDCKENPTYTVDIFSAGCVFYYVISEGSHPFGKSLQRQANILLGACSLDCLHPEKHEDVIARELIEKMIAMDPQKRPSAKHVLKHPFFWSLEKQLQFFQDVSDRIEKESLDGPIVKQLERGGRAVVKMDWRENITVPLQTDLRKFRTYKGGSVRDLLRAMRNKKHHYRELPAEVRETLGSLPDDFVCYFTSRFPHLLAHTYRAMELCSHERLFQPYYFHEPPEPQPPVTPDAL
UniProt P11362, whole entry, looked up: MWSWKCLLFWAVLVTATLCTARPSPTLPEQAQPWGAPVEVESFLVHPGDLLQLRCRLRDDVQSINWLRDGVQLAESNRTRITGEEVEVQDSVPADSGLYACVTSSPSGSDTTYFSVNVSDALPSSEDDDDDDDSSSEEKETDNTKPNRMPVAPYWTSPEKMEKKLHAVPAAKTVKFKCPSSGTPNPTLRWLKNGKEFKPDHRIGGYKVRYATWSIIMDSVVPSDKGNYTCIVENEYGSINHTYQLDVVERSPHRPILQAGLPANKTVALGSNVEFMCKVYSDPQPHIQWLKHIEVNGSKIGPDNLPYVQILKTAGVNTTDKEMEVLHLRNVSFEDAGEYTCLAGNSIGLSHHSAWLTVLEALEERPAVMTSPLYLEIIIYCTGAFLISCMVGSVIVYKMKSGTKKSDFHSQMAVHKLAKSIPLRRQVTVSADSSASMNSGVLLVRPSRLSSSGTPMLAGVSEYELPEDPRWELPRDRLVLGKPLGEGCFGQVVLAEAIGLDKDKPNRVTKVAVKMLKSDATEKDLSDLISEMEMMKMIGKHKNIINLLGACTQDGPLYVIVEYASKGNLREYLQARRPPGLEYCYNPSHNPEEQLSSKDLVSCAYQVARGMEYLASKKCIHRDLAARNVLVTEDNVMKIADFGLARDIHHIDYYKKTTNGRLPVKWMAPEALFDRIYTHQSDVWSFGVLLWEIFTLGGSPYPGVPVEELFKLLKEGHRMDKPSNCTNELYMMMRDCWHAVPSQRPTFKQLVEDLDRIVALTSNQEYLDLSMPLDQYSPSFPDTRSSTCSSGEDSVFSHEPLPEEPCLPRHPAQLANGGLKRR
UniProt P21802, whole entry, looked up: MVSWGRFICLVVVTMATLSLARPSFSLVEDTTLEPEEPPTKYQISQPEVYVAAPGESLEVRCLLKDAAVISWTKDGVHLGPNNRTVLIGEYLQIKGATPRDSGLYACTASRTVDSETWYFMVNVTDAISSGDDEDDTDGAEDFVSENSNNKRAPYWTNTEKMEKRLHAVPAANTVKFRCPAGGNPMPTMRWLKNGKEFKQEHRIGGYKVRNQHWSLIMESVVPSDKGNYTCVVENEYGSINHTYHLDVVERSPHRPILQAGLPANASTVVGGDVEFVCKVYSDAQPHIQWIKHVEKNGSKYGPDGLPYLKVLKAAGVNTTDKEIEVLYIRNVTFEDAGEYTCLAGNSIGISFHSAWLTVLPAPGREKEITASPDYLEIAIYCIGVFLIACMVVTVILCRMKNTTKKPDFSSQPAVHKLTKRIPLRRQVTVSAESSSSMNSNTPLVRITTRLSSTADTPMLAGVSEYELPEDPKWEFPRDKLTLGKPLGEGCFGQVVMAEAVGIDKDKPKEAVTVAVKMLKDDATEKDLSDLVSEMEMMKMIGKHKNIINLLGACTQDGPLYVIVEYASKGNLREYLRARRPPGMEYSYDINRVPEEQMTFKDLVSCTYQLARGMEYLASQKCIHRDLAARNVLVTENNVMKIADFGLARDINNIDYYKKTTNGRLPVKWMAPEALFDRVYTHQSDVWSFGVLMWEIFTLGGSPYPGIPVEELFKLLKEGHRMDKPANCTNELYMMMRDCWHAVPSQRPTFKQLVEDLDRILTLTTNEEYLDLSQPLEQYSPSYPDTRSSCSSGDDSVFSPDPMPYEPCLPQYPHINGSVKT
UniProt P22607, whole entry, looked up: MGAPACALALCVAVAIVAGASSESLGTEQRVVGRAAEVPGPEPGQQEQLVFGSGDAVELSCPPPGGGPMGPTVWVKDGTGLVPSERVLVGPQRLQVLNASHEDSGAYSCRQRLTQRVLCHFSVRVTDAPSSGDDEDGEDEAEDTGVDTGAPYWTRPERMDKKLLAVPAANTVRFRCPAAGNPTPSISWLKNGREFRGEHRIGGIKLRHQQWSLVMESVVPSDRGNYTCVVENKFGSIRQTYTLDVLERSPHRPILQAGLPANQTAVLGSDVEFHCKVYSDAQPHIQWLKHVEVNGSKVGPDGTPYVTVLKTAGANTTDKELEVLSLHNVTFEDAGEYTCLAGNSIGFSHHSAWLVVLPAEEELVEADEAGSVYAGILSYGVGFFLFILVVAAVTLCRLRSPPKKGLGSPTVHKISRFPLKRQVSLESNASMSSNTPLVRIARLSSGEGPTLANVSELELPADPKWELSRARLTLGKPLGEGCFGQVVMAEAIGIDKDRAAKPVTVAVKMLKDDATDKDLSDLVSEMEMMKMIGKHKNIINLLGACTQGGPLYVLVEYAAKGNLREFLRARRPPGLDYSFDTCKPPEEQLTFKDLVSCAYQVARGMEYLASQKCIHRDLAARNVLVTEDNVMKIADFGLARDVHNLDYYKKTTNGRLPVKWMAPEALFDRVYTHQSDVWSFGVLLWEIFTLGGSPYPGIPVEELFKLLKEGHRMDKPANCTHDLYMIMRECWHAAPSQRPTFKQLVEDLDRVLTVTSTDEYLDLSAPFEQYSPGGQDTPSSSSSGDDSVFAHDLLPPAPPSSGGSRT
UniProt P36888, whole entry: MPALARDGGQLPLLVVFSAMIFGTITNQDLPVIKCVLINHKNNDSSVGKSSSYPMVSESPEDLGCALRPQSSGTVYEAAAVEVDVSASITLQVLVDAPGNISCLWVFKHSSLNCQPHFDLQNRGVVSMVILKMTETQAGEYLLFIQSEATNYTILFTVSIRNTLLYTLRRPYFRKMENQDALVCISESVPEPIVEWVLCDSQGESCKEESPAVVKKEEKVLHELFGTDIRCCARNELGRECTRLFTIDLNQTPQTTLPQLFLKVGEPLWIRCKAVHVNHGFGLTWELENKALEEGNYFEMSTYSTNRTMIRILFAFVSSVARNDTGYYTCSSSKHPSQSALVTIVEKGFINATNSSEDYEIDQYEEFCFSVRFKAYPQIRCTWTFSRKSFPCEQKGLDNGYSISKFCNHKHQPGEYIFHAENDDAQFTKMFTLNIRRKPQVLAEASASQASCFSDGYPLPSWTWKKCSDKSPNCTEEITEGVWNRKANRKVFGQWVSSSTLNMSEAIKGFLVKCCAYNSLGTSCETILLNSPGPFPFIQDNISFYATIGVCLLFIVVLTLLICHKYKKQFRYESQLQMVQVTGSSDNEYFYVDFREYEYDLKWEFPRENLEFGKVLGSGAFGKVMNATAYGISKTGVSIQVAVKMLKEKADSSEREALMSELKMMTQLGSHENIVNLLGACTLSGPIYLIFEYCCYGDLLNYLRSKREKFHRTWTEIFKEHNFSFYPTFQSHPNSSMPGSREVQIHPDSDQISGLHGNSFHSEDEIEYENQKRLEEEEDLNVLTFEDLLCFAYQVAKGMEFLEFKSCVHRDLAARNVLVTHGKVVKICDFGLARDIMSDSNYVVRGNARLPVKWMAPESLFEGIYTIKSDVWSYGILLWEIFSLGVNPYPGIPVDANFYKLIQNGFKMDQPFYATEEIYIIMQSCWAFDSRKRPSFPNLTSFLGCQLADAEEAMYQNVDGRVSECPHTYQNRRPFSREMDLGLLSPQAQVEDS
UniProt P49840: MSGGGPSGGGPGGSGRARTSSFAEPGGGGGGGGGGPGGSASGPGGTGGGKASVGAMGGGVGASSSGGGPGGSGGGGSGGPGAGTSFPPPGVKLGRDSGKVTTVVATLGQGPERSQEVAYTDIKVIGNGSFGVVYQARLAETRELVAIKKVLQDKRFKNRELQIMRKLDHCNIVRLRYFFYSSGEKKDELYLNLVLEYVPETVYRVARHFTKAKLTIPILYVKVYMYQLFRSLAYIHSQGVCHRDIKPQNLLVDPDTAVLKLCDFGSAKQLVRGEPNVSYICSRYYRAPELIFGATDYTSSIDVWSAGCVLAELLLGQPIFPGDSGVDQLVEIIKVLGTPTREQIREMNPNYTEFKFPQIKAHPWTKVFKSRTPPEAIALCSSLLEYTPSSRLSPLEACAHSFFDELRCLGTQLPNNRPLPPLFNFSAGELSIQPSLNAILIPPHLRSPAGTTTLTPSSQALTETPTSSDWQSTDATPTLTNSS
UniProt P14616: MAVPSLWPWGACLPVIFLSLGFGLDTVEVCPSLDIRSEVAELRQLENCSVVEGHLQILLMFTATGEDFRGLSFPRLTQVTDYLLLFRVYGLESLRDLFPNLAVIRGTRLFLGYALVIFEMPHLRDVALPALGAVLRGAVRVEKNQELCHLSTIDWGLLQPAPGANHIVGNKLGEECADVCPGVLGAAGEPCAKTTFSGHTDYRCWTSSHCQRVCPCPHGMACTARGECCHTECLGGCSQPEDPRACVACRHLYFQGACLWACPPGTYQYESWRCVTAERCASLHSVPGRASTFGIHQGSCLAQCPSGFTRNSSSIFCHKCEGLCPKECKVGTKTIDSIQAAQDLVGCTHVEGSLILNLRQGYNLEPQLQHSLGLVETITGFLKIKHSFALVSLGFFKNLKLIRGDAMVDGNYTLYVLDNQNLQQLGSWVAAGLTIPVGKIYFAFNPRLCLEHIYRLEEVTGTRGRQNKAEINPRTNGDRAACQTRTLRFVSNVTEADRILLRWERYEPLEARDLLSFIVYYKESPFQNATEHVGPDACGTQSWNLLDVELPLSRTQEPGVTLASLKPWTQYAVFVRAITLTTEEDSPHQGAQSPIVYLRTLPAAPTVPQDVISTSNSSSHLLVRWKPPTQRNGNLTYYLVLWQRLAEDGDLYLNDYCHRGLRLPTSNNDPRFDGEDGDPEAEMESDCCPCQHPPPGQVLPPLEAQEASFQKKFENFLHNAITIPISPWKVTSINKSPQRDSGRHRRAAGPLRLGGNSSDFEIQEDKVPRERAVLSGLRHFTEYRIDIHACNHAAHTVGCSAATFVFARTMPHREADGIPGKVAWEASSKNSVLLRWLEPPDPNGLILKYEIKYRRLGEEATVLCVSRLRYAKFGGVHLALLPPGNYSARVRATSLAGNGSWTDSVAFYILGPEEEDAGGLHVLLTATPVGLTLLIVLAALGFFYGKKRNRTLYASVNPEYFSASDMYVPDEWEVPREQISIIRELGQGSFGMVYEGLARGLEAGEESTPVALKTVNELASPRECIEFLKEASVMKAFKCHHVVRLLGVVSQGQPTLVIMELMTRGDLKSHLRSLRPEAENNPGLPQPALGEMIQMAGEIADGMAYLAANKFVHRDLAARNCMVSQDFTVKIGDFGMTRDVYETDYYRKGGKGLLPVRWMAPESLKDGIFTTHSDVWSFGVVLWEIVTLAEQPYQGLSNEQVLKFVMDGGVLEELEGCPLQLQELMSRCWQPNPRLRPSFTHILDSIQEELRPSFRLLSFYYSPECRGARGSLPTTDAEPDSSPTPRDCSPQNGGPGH

Assays:
Experiment in all cases: kinase-Nluc reporter destabilization hit call (1 = scored as downregulated) (binary); higher = compound decreases kinase abundance
Conditions in all cases: K562; 2-18 h
[1] = target: ERN1 (UniProt O75460)
[2] = target: FGFR1 (UniProt P11362)
[3] = target: FGFR2 (UniProt P21802)
[4] = target: FGFR3 (UniProt P22607)
[5] = target: FGR (UniProt P09769)
[6] = target: FLT3 (UniProt P36888)
[7] = target: FYN (UniProt P06241)
[8] = target: GSK3A (UniProt P49840)
[9] = target: HER2 (UniProt P04626)
[10] = target: INSRR (UniProt P14616)

Measured: kinase-Nluc reporter destabilization hit call

COc1cc(N2CCC(N(C)C)CC2)ccc1Nc1ncc(Cl)c(Nc2ccccc2P(C)(C)=O)n1 (2.5 µM)
inactive: [1] 0 | [2] 0 | [3] 0 | [4] 0 | [5] 0 | [6] 0 | [7] 0 | [8] 0 | [9] 0 | [10] 0

CC[C@@H]1[C@H](F)C(=O)N[C@@H]1COc1nccc2cc(C(N)=O)c(OC)cc12 (10 µM)
inactive: [1] 0 | [2] 0 | [3] 0 | [4] 0 | [5] 0 | [6] 0 | [7] 0 | [8] 0 | [9] 0 | [10] 0

Nc1cccc(S(=O)(=O)N2CCCN(S(=O)(=O)c3ccc4c(c3)OCCO4)CC2)c1 (10 µM)
inactive: [1] 0 | [2] 0 | [3] 0 | [4] 0 | [5] 0 | [6] 0 | [7] 0 | [8] 0 | [9] 0 | [10] 0

O=C1NC(=O)/C(=C/c2ccc(-c3ccc(F)cc3O)o2)S1 (10 µM)
inactive: [1] 0 | [2] 0 | [3] 0 | [4] 0 | [5] 0 | [6] 0 | [7] 0 | [8] 0 | [9] 0 | [10] 0

O=C(O)c1ccccc1Nc1cccc(C(F)(F)F)c1 [Flufenamic acid] (10 µM)
inactive: [1] 0 | [2] 0 | [3] 0 | [4] 0 | [5] 0 | [6] 0 | [7] 0 | [8] 0 | [9] 0 | [10] 0

Cn1cc(-c2cc3c(N4CCN(c5ncc([C@@](C)(N)c6ccc(F)cc6)cn5)CC4)ncnn3c2)cn1 [Avapritinib] (2.5 µM)
inactive: [1] 0 | [2] 0 | [3] 0 | [4] 0 | [5] 0 | [6] 0 | [7] 0 | [8] 0 | [9] 0 | [10] 0

COc1cc(N2CCC(O)CC2)ccc1Nc1cc(Nc2ccccc2S(=O)(=O)C(C)C)c2cc[nH]c2n1 (10 µM)
inactive: [1] 0 | [2] 0 | [3] 0 | [4] 0 | [5] 0 | [6] 0 | [7] 0 | [8] 0 | [9] 0 | [10] 0

COC(=O)[C@@]1(C)CC[C@]2(C(=O)O)CC[C@]3(C)C(=CC[C@@H]4[C@@]5(C)C[C@H](O)[C@H](O[C@@H]6OC[C@@H](O[C@@H]7O[C@H](CO)[C@@H](O)[C@H](O)[C@H]7O)[C@H](O)[C@H]6O)[C@@](C)(CO)[C@@H]5CC[C@]43C)[C@@H]2C1 [Esculentoside A] (10 µM)
inactive: [1] 0 | [2] 0 | [3] 0 | [4] 0 | [5] 0 | [6] 0 | [7] 0 | [8] 0 | [9] 0 | [10] 0

CC[C@@H](N)CNc1ccnc(-c2cc(-c3cnn(C)c3)ccc2O)n1 (2.5 µM)
inactive: [1] 0 | [2] 0 | [3] 0 | [4] 0 | [5] 0 | [6] 0 | [7] 0 | [8] 0 | [9] 0 | [10] 0

COc1c(O)cc2oc3cc(O)c(CC=C(C)C)c(O)c3c(=O)c2c1CCC(C)(C)O [Garcinone D] (2.5 µM)
inactive: [1] 0 | [2] 0 | [3] 0 | [4] 0 | [5] 0 | [6] 0 | [7] 0 | [8] 0 | [9] 0 | [10] 0

CC(C)Oc1ccc(-c2cnc3c(-c4ccnc5ccccc45)cnn3c2)cc1 (10 µM)
inactive: [1] 0 | [2] 0 | [3] 0 | [4] 0 | [5] 0 | [6] 0 | [7] 0 | [8] 0 | [9] 0 | [10] 0

Fc1c(Br)cccc1Nc1ncnc2cc3c(cc12)OCCO3 (2.5 µM)
inactive: [1] 0 | [2] 0 | [3] 0 | [4] 0 | [5] 0 | [6] 0 | [7] 0 | [8] 0 | [9] 0 | [10] 0

Cc1cc2cc(Oc3ccnc(Nc4cccc(CS(=O)(=O)NCCN(C)C)c4)n3)ccc2[nH]1 [Sulfatinib] (10 µM)
inactive: [1] 0 | [2] 0 | [3] 0 | [4] 0 | [5] 0 | [6] 0 | [7] 0 | [8] 0 | [9] 0 | [10] 0

CC(C)(C)Cn1c(N)nc2ccc(-c3[nH]c(C(C)(C)C)nc3-c3ccc(F)cc3)nc21 [Ralimetinib dimesylate] (2.5 µM)
inactive: [1] 0 | [2] 0 | [3] 0 | [4] 0 | [5] 0 | [6] 0 | [7] 0 | [8] 0 | [9] 0 | [10] 0

CC(C)(C)C(=O)N1N=CC[C@H]1c1ccccc1 (10 µM)
inactive: [1] 0 | [2] 0 | [3] 0 | [4] 0 | [5] 0 | [6] 0 | [7] 0 | [8] 0 | [9] 0 | [10] 0

CN1CC[C@H](c2c(O)cc(O)c3c(=O)cc(-c4ccc(C(F)(F)F)cc4Cl)oc23)[C@H]1CO [(2S,3R)-Voruciclib (hydrochloride)] (2.5 µM)
inactive: [1] 0 | [2] 0 | [3] 0 | [4] 0 | [5] 0 | [6] 0 | [7] 0 | [8] 0 | [9] 0 | [10] 0

C[C@@H]1COCCN1c1cc(C2([S@](C)(=N)=O)CC2)nc(-c2cc[nH]c3nccc2-3)n1 [Ceralasertib] (2.5 µM)
inactive: [1] 0 | [2] 0 | [3] 0 | [4] 0 | [5] 0 | [6] 0 | [7] 0 | [8] 0 | [9] 0 | [10] 0

C=CC(=O)N1CCC(Oc2cc3c(Nc4ccc(Cl)c(Cl)c4F)ncnc3cc2OC)CC1 [Poziotinib] (2.5 µM)
inactive: [1] 0 | [2] 0 | [3] 0 | [4] 0 | [5] 0 | [6] 0 | [7] 0 | [8] 0 | [9] 0 | [10] 0

COc1ccc2c(c1OC)OC1c3ccc(O)cc3OCC21 (stereo not given) [Methylnissolin] (10 µM)
inactive: [1] 0 | [2] 0 | [3] 0 | [4] 0 | [5] 0 | [6] 0 | [7] 0 | [8] 0 | [9] 0 | [10] 0

Two neighbouring records already listed:
CC(C)(C)C(=O)N1N=CC[C@H]1c1ccccc1 (10 µM)
inactive: [1] 0 | [2] 0 | [3] 0 | [4] 0 | [5] 0 | [6] 0 | [7] 0 | [8] 0 | [9] 0 | [10] 0

CN1CC[C@H](c2c(O)cc(O)c3c(=O)cc(-c4ccc(C(F)(F)F)cc4Cl)oc23)[C@H]1CO [(2S,3R)-Voruciclib (hydrochloride)] (2.5 µM)
inactive: [1] 0 | [2] 0 | [3] 0 | [4] 0 | [5] 0 | [6] 0 | [7] 0 | [8] 0 | [9] 0 | [10] 0

Remaining list, next part

CC(C)n1cnc2c(Nc3cccc(Cl)c3)nc(NCCO)nc21 (10 µM)
inactive: [1] 0 | [2] 0 | [3] 0 | [4] 0 | [5] 0 | [6] 0 | [7] 0 | [8] 0 | [9] 0 | [10] 0

COc1ccc2c(Oc3ccc(NC(=O)c4c(C)n(CC(C)(C)O)n(-c5ccccc5)c4=O)cc3F)ccnc2c1 (2.5 µM)
inactive: [1] 0 | [2] 0 | [3] 0 | [4] 0 | [5] 0 | [6] 0 | [7] 0 | [8] 0 | [9] 0 | [10] 0

CCOc1c([C@H](C)n2nc(C)c3c(N)ncnc32)cc(Cl)c(F)c1[C@@H]1CNC(=O)C1 [Parsaclisib (hydrochloride)] (10 µM)
inactive: [1] 0 | [2] 0 | [3] 0 | [4] 0 | [5] 0 | [6] 0 | [7] 0 | [8] 0 | [9] 0 | [10] 0

CC(C)N(C)c1nc2cc(C(=O)O)ccc2nc1-c1ccc(F)cc1 (10 µM)
inactive: [1] 0 | [2] 0 | [3] 0 | [4] 0 | [5] 0 | [6] 0 | [7] 0 | [8] 0 | [9] 0 | [10] 0

CC(=O)Nc1nc2ccc(-c3cnc(C)c(NC(=O)OC4CCCCC4)c3)cc2s1 (10 µM)
inactive: [1] 0 | [2] 0 | [3] 0 | [4] 0 | [5] 0 | [6] 0 | [7] 0 | [8] 0 | [9] 0 | [10] 0

C=CC(=O)Nc1cccc(Oc2nc(Nc3ccc(N4CCN(C)CC4)cc3)nc3ccoc23)c1 [Poseltinib] (10 µM)
active: [9] 1
inactive: [1] 0 | [2] 0 | [3] 0 | [4] 0 | [5] 0 | [6] 0 | [7] 0 | [8] 0 | [10] 0

CCc1c(C)sc(NC(=S)NC(=O)c2ccc(Cl)cc2)c1C(N)=O (10 µM)
inactive: [1] 0 | [2] 0 | [3] 0 | [4] 0 | [5] 0 | [6] 0 | [7] 0 | [8] 0 | [9] 0 | [10] 0

COC1(C(=O)N[C@@H](C)c2ccc(-n3cc(F)cn3)nc2)CCC(c2nc(C)cc(Nc3cc(C)[nH]n3)n2)CC1 (stereo partly drawn) [trans-Pralsetinib] (2.5 µM)
inactive: [1] 0 | [2] 0 | [3] 0 | [4] 0 | [5] 0 | [6] 0 | [7] 0 | [8] 0 | [9] 0 | [10] 0

CC(C)(O)[C@@H]1CC[C@](C)([C@H]2[C@@H](O)C[C@@]3(C)[C@@H]4C[C@H](O[C@@H]5O[C@H](CO)[C@@H](O)[C@H](O)[C@H]5O)[C@H]5C(C)(C)[C@@H](O[C@@H]6OC[C@@H](O)[C@H](O)[C@H]6O[C@@H]6O[C@H](CO)[C@@H](O)[C@H](O)[C@H]6O)CC[C@@]56C[C@@]46CC[C@]23C)O1 [Astragaloside VI] (10 µM)
inactive: [1] 0 | [2] 0 | [3] 0 | [4] 0 | [5] 0 | [6] 0 | [7] 0 | [8] 0 | [9] 0 | [10] 0

COc1ccccc1/C=C1\C(=O)Nc2ccccc21 (10 µM)
inactive: [1] 0 | [2] 0 | [3] 0 | [4] 0 | [5] 0 | [6] 0 | [7] 0 | [8] 0 | [9] 0 | [10] 0
